Measurements from patent US20190209501A1, “COMPOSITIONS AND METHODS OF USE OF BETA-HYDROXY-BETA-METHYLBUTYRATE (HMB) […] IN[…]” (Texas Tech University Office of Research Commercialization, priority 2018, published 2019).

Experiment: Physical activity monitoring by accelerometer (steps, PAEE, sedentary time)
Assay type: in vivo, human
Conditions: for LI PA ES (d) / MV PA ES (d) / PAEE ES (d) / Sedentary Time ES (d) / Steps ES (d): effect size; for LI PA Δ / MV PA Δ / PAEE Δ / Sedentary Time Δ / Steps Δ: pre- to late intervention

With CC(C)(O)CC(=O)O [TRFHMB, β-hydroxy-β-methylbutyrate] as the compound, how does the “LI PA” value (ITT, Early Intervention) read?
Its value is 200 ± 18 min/d.

And the “MV PA” value (ITT, Early Intervention)?
The value was 57 ± 7 min/d.

And the PAEE (ITT, Early Intervention)?
Its PAEE is 411 ± 41 kcal.

What about the “Sedentary Time” value (ITT, Early Intervention) of the same compound?
Its value is 570 ± 19 min/d.

And the Steps (ITT, Early Intervention)?
The Steps was 9179 ± 790 #/d.

And the “LI PA” value (ITT, Late Intervention)?
Its value is 210 ± 24 min/d.

And the “MV PA” value (ITT, Late Intervention)?
Its value is 44 ± 9 min/d.

What about the PAEE (ITT, Late Intervention) of the same compound?
Its PAEE is 352 ± 52 kcal.

And the “Sedentary Time” value (ITT, Late Intervention)?
Its value is 570 ± 23 min/d.

And the Steps (ITT, Late Intervention)?
The Steps was 7896 ± 1094 #/d.

What about the “LI PA” value (ITT, Pre-intervention) of the same compound?
The value was 203 ± 16 min/d.

What about the “MV PA” value (ITT, Pre-intervention) of the same compound?
The value was 48 ± 7 min/d.

What about the PAEE (ITT, Pre-intervention) of the same compound?
The PAEE was 378 ± 49 kcal.

What about the “Sedentary Time” value (ITT, Pre-intervention) of the same compound?
Its value is 574 ± 16 min/d.

And the Steps (ITT, Pre-intervention)?
Its Steps is 8393 ± 855 #/d.

What about the “LI PA ES (d)” value (ITT) of the same compound?
The value was 0.10.

And the “MV PA ES (d)” value (ITT)?
Its value is −0.14.

What about the “PAEE ES (d)” value (ITT) of the same compound?
The value was −0.14.

And the “Sedentary Time ES (d)” value (ITT)?
The value was −0.06.

What about the “Steps ES (d)” value (ITT) of the same compound?
The value was −0.14.

And the “LI PA Δ” value (ITT)?
The value was 7 min/d.

And the “MV PA Δ” value (ITT)?
Its value is −4 min/d.

What about the “PAEE Δ” value (ITT) of the same compound?
Its value is -26 kcal.

And the “Sedentary Time Δ” value (ITT)?
The value was −4 min/d.

And the “Steps Δ” value (ITT)?
Its value is −497 #/d.

And the “LI PA” value (PP, Early intervention)?
The value was 222 ± 22 min/d.

What about the “MV PA” value (PP, Early intervention) of the same compound?
The value was 58 ± 10 min/d.

What about the PAEE (PP, Early intervention) of the same compound?
The PAEE was 453 ± 61 kcal.

And the “Sedentary Time” value (PP, Early intervention)?
Its value is 546 ± 23 min/d.

What about the Steps (PP, Early intervention) of the same compound?
The Steps was 9385 ± 984 #/d.

And the “LI PA” value (PP, Late Intervention)?
The value was 208 ± 29 min/d.

What about the “MV PA” value (PP, Late Intervention) of the same compound?
Its value is 48 ± 13 min/d.

What about the PAEE (PP, Late Intervention) of the same compound?
Its PAEE is 409 ± 80 kcal.

What about the “Sedentary Time” value (PP, Late Intervention) of the same compound?
The value was 561 ± 31 min/d.

What about the Steps (PP, Late Intervention) of the same compound?
The Steps was 8274 ± 1596 #/d.

And the “LI PA” value (PP, Pre-intervention)?
Its value is 214 ± 17 min/d.

And the “MV PA” value (PP, Pre-intervention)?
Its value is 52 ± 11 min/d.

And the PAEE (PP, Pre-intervention)?
Its PAEE is 438 ± 73 kcal.

What about the “Sedentary Time” value (PP, Pre-intervention) of the same compound?
Its value is 556 ± 20 min/d.

And the Steps (PP, Pre-intervention)?
The Steps was 9286 ± 1379 #/d.

And the “LI PA ES (d)” value (PP)?
Its value is −0.10.

What about the “MV PA ES (d)” value (PP) of the same compound?
Its value is −0.13.

What about the “PAEE ES (d)” value (PP) of the same compound?
The value was 0.28.

What about the “Sedentary Time ES (d)” value (PP) of the same compound?
Its value is 0.07.

And the “Steps ES (d)” value (PP)?
Its value is −0.26.

And the “LI PA Δ” value (PP)?
Its value is −6 min/d.

And the “MV PA Δ” value (PP)?
The value was −4 min/d.

What about the “PAEE Δ” value (PP) of the same compound?
Its value is -29 kcal.

And the “Sedentary Time Δ” value (PP)?
The value was 5 min/d.

And the “Steps Δ” value (PP)?
The value was −1012 #/d.

Some results come without the dose or concentration used.
